Assay results reported in PubChem BioAssay AID504648 (National Center for Advancing Translational Sciences (NCATS), 2011).
Hit rate of the full screen: of about 390,000 compounds, about 610 (0.16%) were called active. Inconclusive means that the source gave no clear call. Such entries were picked first, then a sample of the others. Calls follow the shape of the dose curve; as a rule, active = well fitted inhibition curve with a large enough effect; inconclusive = small, poorly fitted or top-dose-only effect, or effect the other way, or another doubt; inactive = no such curve, though single readings can be large or run the other way. A potency beside an inconclusive call is a rough fit, not a confirmed value.

experiment: Nrf2 qHTS screen for inhibitors: counterscreen for cytotoxicity; settings: A549 ARE-Fluc cells, CellTiter-Fluor viability, 18-24 h; activity change, negative = cytotoxicity: at 46 µM (top of the series)
Procedure, shortened: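 A549 ARE-Fluc cells in 5% FBS OPTI-MEM, 5000 cells/well, rested 2 h then exposed to compounds in concentration-response for 18-24 h at 37 °C. Viability by CellTiter-Fluor fluorescence (Ex 405/Em 525) after 30 min; luciferase luminescence (BugLite, 15 min, RT) read afterwards.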
% is scaled to controls: 0 for no effect and ±100 for the full control effect; potency is read from the fitted curve at half-maximal effect.

Compound | Potency | activity change, negative = cytotoxicity
Cc1cc(Nc2cccc(C(F)(F)F)c2)nc2ccc(NC(=O)c3cccnc3)cc12 | inconclusive: 20.6 µM [falling, single point] | –
COc1ccc(C(CNC(=O)c2oc3ccc(OC)cc3c2C)N2CCCC2)cc1 (stereo not drawn) | – | inactive: -1.94%
Cc1ccc2nc(N/N=C\c3ccc([N+](=O)[O-])o3)nc(-c3ccccc3)c2c1 | active: 23.1 µM | –
N#C/C(=C\Nc1ccccc1O)c1nc2ccccc2o1 | inconclusive: 29.1 µM [falling, single point] | –
CCOc1ccc(-c2ccc(SCC(=O)NCC3CCCO3)nn2)cc1 (stereo not drawn) | – | inactive: 5.67%
Cc1ccc2nsnc2c1S(=O)(=O)Nc1cccc2cccnc12 | inconclusive: 20.6 µM [falling, single point] | –
CC(C)(C)S(=O)(=O)/C(C#N)=N/Nc1ccc(Cl)cc1 | inconclusive: 16.4 µM [falling, partial curve] | –
CCOC(=O)c1ccc(N2C(=O)CC(Sc3nnc(C)s3)C2=O)cc1 (stereo not drawn) | – | inactive: 3.16%
Cc1nnc(N2CCCC(C(=O)Nc3cc(F)ccc3F)C2)c2nn(-c3ccccc3)c(C)c12 (stereo not drawn) | inconclusive: 23.1 µM [falling, partial curve] | –
CCn1c(CNC(=O)c2ccco2)nnc1SCC(=O)c1ccc(F)cc1 | inconclusive: 4.61 µM [activator, partial curve, poor fit] | –
CCCCCCCNC(=O)C1(CC2CC(c3cccc(Br)c3)=NO2)CCN(C(=O)C2CCCC2)CC1 (stereo not drawn) | inconclusive: 29.1 µM [falling, single point] | –
O=C(Nc1ccc(N2CCN(C(=O)c3ccc(Cl)cc3)CC2)cc1)c1ccc([N+](=O)[O-])o1 | inconclusive: 29.1 µM [falling, single point] | –
CCOc1ccc(CCNC(=O)c2cc3n(n2)CCCN(Cc2ccc(C)cc2)C3=O)cc1OCC | – | inactive: -1.11%
COc1cc2ccccc2cc1C(=O)Nc1ccc(N2CCN(C)CC2)cc1 | inconclusive: 29.1 µM [falling, partial curve, poor fit] | –
O=C(NC1(C(F)(F)F)N=C(c2ccccc2)N(Cc2ccccc2)C1=O)c1ccc(F)cc1 (stereo not drawn) | inconclusive: 11.6 µM [falling, partial curve, poor fit] | –
CCC(=O)Nc1ccc2nc3c(=O)[nH]c(=S)[nH]c3nc2c1 | inconclusive: 13 µM [falling, partial curve, poor fit] | –
CC1=CC(C)(C)N(C(=O)c2ccccc2)c2ccc(C)cc21 | inconclusive: 25.9 µM [activator, partial curve, poor fit] | –
CCCCN1C(C(=O)c2ccccc2)=C(OC(=O)CC)c2ccccc2S1(=O)=O | inconclusive: 20.6 µM [falling, single point] | –
Cc1cc(C)c(NC(=O)Cn2nnc3sc4c(c3c2=O)CCC(C(C)(C)C)C4)c(C)c1 (stereo not drawn) | inconclusive: 29.1 µM [falling, single point] | –
COc1ccc(-c2nc(CN3CCC(C(=O)NC4CCN(Cc5ccccc5)CC4)CC3)c(C)o2)cc1OC | inconclusive: 11.6 µM [falling, partial curve, poor fit] | –
Cc1ccc(S(=O)(=O)N(C)Cc2ccc(C(=O)N/N=C/c3ccc(OC(F)F)cc3OC(F)F)cc2)cc1 | – | inactive: -1.58%
COc1ccc(Cn2c3ccc(OC)cc3c3nc4ccccc4nc32)cc1 | – | inactive: 2.04%
Cc1cc(N2CCCC2)nc2ccc(NC(=S)NCCCN3CCC(C)CC3)cc12 | active: 9.2 µM | –

Taken from above.
Potency with CCCCN1C(C(=O)c2ccccc2)=C(OC(=O)CC)c2ccccc2S1(=O)=O reads inconclusive: 20.6 µM [falling, single point]
activity change, negative = cytotoxicity with CCOC(=O)c1ccc(N2C(=O)CC(Sc3nnc(C)s3)C2=O)cc1 (stereo not drawn) reads inactive: 3.16%
activity change, negative = cytotoxicity with CCOc1ccc(-c2ccc(SCC(=O)NCC3CCCO3)nn2)cc1 (stereo not drawn) reads inactive: 5.67%
activity change, negative = cytotoxicity with Cc1ccc(S(=O)(=O)N(C)Cc2ccc(C(=O)N/N=C/c3ccc(OC(F)F)cc3OC(F)F)cc2)cc1 reads inactive: -1.58%
Potency with Cc1ccc2nc(N/N=C\c3ccc([N+](=O)[O-])o3)nc(-c3ccccc3)c2c1 reads active: 23.1 µM

Further structures:

Compound | Potency | activity change, negative = cytotoxicity
Cc1nc2nc(-c3ccc(F)cc3)cn2nc1C | inconclusive: 23.1 µM [activator, partial curve, poor fit] | –
COc1ccc(-c2nnc(Nc3nc4c(OC)cccc4s3)o2)c(OC)c1 | inconclusive: 29.1 µM [falling, single point] | –
COc1ccc(Cl)cc1-n1c(C)cc(C(=O)O)c1C | – | inactive: 8.76%
CCOC(=O)C1=C(c2ccccc2)c2ccccc2N(S(=O)(=O)C(F)(F)F)C1C(=O)OCC (stereo not drawn) | – | inactive: -10.4%
CN(C(=O)COC(=O)c1ccc([N+](=O)[O-])cc1N)c1ccccc1 | – | inactive: 0.41%
Cc1ccc(NC(=O)c2ccc(F)c(S(=O)(=O)NCCc3ccccc3)c2)cc1F | inconclusive: 29.1 µM [falling, single point] | –
O=C(CS(=O)(=O)c1nc(-c2ccc(Cl)cc2)cn1-c1ccccc1)Nc1cccc(Cl)c1 | inconclusive: 29.1 µM [falling, single point] | –
CCOC(=O)c1cc(CC)sc1NC(=O)CN1CCN(C(=O)c2ccco2)CC1 | inconclusive: 23.1 µM [falling, single point] | –
CCc1ccc(NC(=O)N2CCN(c3nnc(C)c4c(C)n(-c5ccc(Cl)cc5)nc34)CC2)cc1 | inconclusive: 16.4 µM [falling, single point] | –
CC1CCN(C(=O)CSc2nc3c(cnn3-c3ccc(Cl)cc3)c(=O)[nH]2)CC1 | – | inactive: 1.91%
Cc1ccc(NC(=O)C2=C(c3ccccc3)S(=O)(=O)CCS2(=O)=O)cc1 | inconclusive: 29.1 µM [falling, single point] | –
CCOC(=O)c1c(C)c(C(=O)NCCCOC)c(C)n1C | – | inactive: 1.22%
COc1ccc(C(=O)NC(Nc2ccc(C)cc2)C(Cl)(Cl)Cl)cc1 (stereo not drawn) | inconclusive: 23.1 µM [falling, partial curve, poor fit] | –
N#C/C(=N\Nc1ccc(Cl)cc1)C(=O)c1ccccc1 | active: 16.4 µM | –
Cc1nn(-c2ccccc2)c2nc(-c3ccco3)cc(C(=O)O)c12 | – | inactive: -1.84%
Cc1cc(OCC(=O)NCCCN2CCOCC2)cc(C)c1Cl | inconclusive: 29.1 µM [activator, partial curve, poor fit] | –
CCOC(=O)C1=C(C)N=C2c3ccccc3C(=O)C2C1c1ccc(C)cc1 (stereo not drawn) | inconclusive: 22.4 µM [falling, partial curve, poor fit] | –
COc1ccc2nc(N=Nc3ccc(O)c4ccccc34)sc2c1 | inconclusive: 23.1 µM [falling, single point] | –
COc1cc(C(=O)N/N=C(\c2ccccc2)c2ccccn2)cc(OC)c1OC | inconclusive: 2.91 µM [falling, full curve] | –
N#Cc1nc(NCC(F)F)nc(Nc2cc(F)cc(F)c2)n1 | inconclusive: 16.4 µM [falling, partial curve] | –
CCOC(=O)COc1ccccc1/C=C\[N+](=O)[O-] | inconclusive: 20.6 µM [falling, single point] | –
Cc1c(P(=S)(c2ccccc2)c2ccccc2)[n+]2ccccc2n1CCCc1ccccc1 | – | inactive: -14.1%
CC(=O)N1c2c(cc(Br)cc2S(=O)(=O)NCc2ccc3c(c2)OCO3)CC1C (stereo not drawn) | inconclusive: 6.51 µM [activator, single point] | –

Compound | Potency | activity change, negative = cytotoxicity
COc1cc(/C=C2/SC(=S)N(Cc3ccccc3)C2=O)ccc1O | inconclusive: 18.4 µM [falling, partial curve, poor fit] | –
CCOC(=O)/C(=C\c1ccccc1)C(=O)c1cc(C(C)=O)c(Nc2ccccc2)s1 | inconclusive: 29.1 µM [falling, single point] | –
Oc1ccc(/C=N/Nc2cccc3cccnc23)c(O)c1 | inconclusive: 29.1 µM [falling, single point] | –
O=C(c1ccc2c(c1)N(Cc1ccccc1F)C(=O)c1ccccc1S2=O)N1CCC(Cc2ccccc2)CC1 (stereo not drawn) | – | inactive: -23%
COc1cc(NC(=S)Nc2ccc(Br)cc2Cl)c(OC)cc1Cl | inconclusive: 10.3 µM [activator, partial curve, poor fit] | –
C(=N\Nc1nc(-c2ccccn2)nc2ccccc12)/c1ccccc1 | inconclusive: 8.2 µM [falling, partial curve, poor fit] | –
COc1ccc(CCNc2ccc(S(=O)(=O)N3CCN(C)CC3)cc2[N+](=O)[O-])cc1 | – | inactive: -4.73%
Cc1cccc(C(=O)NC(=S)NNC(=O)c2cccs2)c1 | – | inactive: 1.54%
O=C1/C(=C/N(C(=O)c2ccco2)c2ccc(Br)cc2)Sc2ccccc21 | – | inactive: -16.1%
C=CCn1c(N)c(C(=O)NCC2CCCO2)c2nc3ccccc3nc21 (stereo not drawn) | inconclusive: 16.4 µM [activator, single point] | –
Cn1cc(NC(=O)OCc2ccc(Cl)cc2)c(C(F)(F)F)n1 | – | inactive: 1.43%
CCCCNC(=S)Nc1ccc([N+](=O)[O-])cc1 | inconclusive: 18.4 µM [falling, single point] | –
CN(C)CCNC(=O)c1cccc2ccc(-c3ccc(-c4ccccc4)cc3)nc12 | inconclusive: 18.4 µM [falling, partial curve, poor fit] | –
Cc1nc(-c2cccc(F)c2)sc1CCNC(=O)Cc1ccc(F)cc1 | inconclusive: 2.91 µM [activator, full curve, poor fit] | –
COc1cccc(NC(=O)C2C(c3ccccc3)C2(Cl)Cl)c1 (stereo not drawn) | inconclusive: 29.1 µM [falling, partial curve, poor fit] | –
Cc1cccnc1NC(=O)CSc1ccc2c(c1)OCCO2 | inconclusive: 32.6 µM [activator, single point] | –
O=C(Cn1ncc(Cl)c(Cl)c1=O)NC1CCS(=O)(=O)C1 (stereo not drawn) | – | inactive: 0.921%
O=C(O)c1ccc(CS(=O)c2cccc(C(F)(F)F)c2)o1 (stereo not drawn) | – | inactive: -3.55%
CCOC(=O)C(C(=O)OCC)C(C)(C)/C(C)=N\Nc1ccc([N+](=O)[O-])cc1[N+](=O)[O-] | inconclusive: 9.2 µM [falling, partial curve, poor fit] | –
CC(=O)Nc1ncc(N=Nc2cccc(C(F)(F)F)c2)s1 | active: 11.6 µM | –
Cc1ccc(C)c(N=Nc2ccc(O)c3ncccc23)c1 | inconclusive: 20.6 µM [falling, single point] | –
Cn1c(C(=O)NCc2ccccc2Cl)cc2sc(Cl)cc21 | – | inactive: -5.3%
